# Screening data, single-dose tests

Chains of the proteins cited; added tags and fusions are not shown. Residues count along the entry.
UniProt P9WNZ1, whole entry: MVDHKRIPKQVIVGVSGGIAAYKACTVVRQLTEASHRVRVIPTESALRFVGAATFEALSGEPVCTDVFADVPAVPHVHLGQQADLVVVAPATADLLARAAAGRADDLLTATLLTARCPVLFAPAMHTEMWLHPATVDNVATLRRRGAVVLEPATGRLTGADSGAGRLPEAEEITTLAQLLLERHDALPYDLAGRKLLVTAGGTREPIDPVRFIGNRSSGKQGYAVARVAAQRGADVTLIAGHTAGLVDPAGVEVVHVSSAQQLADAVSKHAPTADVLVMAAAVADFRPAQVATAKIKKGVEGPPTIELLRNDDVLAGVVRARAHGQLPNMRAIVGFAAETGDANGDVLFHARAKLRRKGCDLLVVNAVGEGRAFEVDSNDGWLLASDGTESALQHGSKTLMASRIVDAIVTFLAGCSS
UniProt I6X8D2, whole entry: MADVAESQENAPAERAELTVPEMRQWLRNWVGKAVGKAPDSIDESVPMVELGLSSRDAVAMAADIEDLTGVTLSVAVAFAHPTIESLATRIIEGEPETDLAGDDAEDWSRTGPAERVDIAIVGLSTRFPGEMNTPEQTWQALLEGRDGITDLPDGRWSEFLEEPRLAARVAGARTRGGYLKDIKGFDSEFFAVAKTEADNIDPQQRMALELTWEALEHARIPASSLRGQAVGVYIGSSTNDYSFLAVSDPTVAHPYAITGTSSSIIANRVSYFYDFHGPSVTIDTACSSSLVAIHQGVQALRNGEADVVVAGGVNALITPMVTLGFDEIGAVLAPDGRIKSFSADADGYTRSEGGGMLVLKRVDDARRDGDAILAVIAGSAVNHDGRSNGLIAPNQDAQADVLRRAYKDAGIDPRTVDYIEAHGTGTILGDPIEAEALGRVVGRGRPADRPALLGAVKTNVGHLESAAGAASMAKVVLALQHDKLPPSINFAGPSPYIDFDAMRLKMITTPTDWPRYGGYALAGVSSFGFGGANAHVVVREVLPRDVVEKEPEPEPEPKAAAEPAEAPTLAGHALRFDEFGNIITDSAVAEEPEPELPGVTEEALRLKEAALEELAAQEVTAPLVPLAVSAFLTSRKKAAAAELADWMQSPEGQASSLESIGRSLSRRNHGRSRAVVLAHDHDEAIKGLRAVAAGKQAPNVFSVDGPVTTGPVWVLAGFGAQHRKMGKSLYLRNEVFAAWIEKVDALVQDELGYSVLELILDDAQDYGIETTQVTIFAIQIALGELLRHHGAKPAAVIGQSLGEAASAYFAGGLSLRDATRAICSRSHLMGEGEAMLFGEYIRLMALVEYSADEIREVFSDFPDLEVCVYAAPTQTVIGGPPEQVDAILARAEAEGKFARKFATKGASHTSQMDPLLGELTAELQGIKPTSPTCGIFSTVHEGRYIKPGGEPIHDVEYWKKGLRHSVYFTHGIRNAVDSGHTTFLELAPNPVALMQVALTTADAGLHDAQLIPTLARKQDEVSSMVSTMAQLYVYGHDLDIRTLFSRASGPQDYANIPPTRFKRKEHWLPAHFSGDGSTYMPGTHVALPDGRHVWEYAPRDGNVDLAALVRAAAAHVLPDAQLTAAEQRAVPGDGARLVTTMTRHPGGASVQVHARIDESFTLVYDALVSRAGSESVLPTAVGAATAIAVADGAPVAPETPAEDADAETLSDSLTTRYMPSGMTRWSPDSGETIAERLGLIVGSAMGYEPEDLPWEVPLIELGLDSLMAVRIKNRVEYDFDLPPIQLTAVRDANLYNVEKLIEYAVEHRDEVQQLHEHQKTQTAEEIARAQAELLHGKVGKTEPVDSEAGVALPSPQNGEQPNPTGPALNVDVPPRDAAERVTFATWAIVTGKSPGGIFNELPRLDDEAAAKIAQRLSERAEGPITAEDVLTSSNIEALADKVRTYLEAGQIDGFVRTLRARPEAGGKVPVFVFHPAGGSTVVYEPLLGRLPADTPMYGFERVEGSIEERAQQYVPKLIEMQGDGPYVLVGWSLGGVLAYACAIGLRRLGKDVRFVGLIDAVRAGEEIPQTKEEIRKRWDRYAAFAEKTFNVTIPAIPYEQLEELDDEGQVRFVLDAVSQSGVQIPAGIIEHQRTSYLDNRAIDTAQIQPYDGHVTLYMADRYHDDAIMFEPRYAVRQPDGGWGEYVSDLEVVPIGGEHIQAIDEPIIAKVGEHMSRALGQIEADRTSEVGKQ
UniProt P9WPC5, whole entry: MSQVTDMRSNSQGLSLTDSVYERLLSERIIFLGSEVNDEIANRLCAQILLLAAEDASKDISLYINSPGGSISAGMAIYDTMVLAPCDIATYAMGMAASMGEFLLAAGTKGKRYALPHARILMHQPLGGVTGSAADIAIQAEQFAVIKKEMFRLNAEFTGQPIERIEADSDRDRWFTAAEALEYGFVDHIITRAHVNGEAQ
UniProt P9WPC3, whole entry partner: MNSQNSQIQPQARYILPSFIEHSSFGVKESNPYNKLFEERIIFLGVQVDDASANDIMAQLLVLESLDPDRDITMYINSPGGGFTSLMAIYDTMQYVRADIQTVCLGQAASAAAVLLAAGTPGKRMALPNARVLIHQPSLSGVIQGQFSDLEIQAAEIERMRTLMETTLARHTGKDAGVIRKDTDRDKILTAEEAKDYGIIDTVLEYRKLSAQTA
UniProt A4I591, 1-473: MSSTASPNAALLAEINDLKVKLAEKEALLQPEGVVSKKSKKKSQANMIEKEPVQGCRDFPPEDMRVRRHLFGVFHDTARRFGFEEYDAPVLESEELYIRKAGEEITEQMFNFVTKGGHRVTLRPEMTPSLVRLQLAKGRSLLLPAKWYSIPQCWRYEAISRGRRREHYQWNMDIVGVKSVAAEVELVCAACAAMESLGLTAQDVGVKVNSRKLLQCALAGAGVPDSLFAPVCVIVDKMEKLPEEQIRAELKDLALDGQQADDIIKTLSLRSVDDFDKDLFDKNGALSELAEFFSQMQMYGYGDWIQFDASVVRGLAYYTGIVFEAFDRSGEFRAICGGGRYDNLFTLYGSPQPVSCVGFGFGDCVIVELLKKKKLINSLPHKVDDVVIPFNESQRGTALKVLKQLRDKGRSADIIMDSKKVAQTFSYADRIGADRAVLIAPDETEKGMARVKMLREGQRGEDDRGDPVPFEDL
UniProt P9WFT3, whole entry: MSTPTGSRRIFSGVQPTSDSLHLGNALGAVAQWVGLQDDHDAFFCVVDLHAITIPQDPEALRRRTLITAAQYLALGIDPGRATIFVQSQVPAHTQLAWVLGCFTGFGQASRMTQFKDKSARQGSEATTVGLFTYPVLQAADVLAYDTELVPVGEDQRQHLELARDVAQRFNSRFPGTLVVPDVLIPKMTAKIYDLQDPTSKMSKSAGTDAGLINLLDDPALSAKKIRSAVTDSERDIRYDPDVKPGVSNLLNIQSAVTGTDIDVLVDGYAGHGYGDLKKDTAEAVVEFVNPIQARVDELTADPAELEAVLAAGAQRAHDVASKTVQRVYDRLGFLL

CoaBC: 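Enzyme assay of CoaBC with a phosphate dye (Biomol Green) read at 650 nm. Target: Coenzyme A biosynthesis protein CoaBC, Mycobacterium tuberculosis (UniProt P9WNZ1). Concentration: 30 µM. Direction is inferred from only a few compounds that gave an IC50; most scored high, so higher reads as stronger inhibition. Most strong results did not repeat in a second test. About 67,000 compounds were tested under these conditions; 0.06% (about 40) showed 50% or more at least once.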
Pks13 thioesterase: 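Enzyme assay of the thioesterase domain of polyketide synthase 13; the read-out is not stated. Target: Polyketide synthase Pks13, Mycobacterium tuberculosis (UniProt I6X8D2). Tested at 30 µM. Higher reads as stronger inhibition (inferred from which compounds were picked for retests). Of about 67,000 compounds tested this way, about 300 (0.46%) reached 50% or more in at least one test.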
ClpP1P2: 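ClpP1P2, Mycobacterium tuberculosis (UniProt P9WPC5 and UniProt P9WPC3). Protease assay of ClpP1P2, read by the AMC dye that it sets free. Compounds at 50 µM. Higher reads as stronger inhibition, judged from the few compounds that gave an IC50. Most other retested compounds had strongly negative values. Of about 69,000 compounds tested this way, about 10 (0.015%) reached 50% or more in at least one test.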
LiHisRS: 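Histidine-tRNA ligase, Leishmania infantum (UniProt A4I591). Enzyme assay of histidyl-tRNA synthetase; the read-out is not stated. Tested at 30 µM. Direction is inferred from retests: higher values go with stronger inhibition. The assay is labelled LdHisRS but filed under L. infantum. About 69,000 compounds were tested under these conditions; 0.6% (about 410) showed 50% or more at least once.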
MtTrpRS: 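Enzyme assay of tryptophanyl-tRNA synthetase; the read-out is not stated. Target: Tryptophan-tRNA ligase, Mycobacterium tuberculosis (UniProt P9WFT3). Concentration: 10 µM. Higher most likely means stronger inhibition; the record gives no direction and few retests gave an IC50. Size under these conditions: about 65,000 compounds, about 64 of them at 50% or above in at least one test.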

Values are the deposited “Percent Effect”, in %.
The record does not define 0% and 100%; most values in the screen are far below 50% and negative numbers occur (in some assays of this library far below -100).
Compounds were drawn at random from those tested, without regard to their results.
Two or more numbers in one place are separate tests of the same structure; such repeats can differ widely.
A dash means the value is not listed here; it may have been measured.

compound,CoaBC,Pks13 thioesterase,ClpP1P2,LiHisRS,MtTrpRS
COC(=O)[C@@H]1C[C@H](NC(=O)c2cc(=O)[nH]c3ccc(C)cc23)CN1C,3.951,-9.831,-85.07,20.98,-1.253
O=C(c1ccc(F)cc1)N1C[C@@H]2CN(c3ncccn3)C[C@@H]2C1,4.713,-16.84,2.028,20,-3.843
CC(NC(=O)C1CC1)c1cc(O)nc(-c2cccnc2)n1 (centres undefined),3.946,-40.55,1.536,9.859,7.256
CN(Cc1ccccn1)C(C(=O)O)c1ccc2c(c1)OCO2 (centres undefined),-0.2469,-14.05,-13.04,5.594,-2.819
Cc1nn(C)c(C)c1CC(=O)NCC1(C(N)=O)CCOCC1,5.825,10.72,-7.89,15.29,2.271
Cc1nc(CNC(=O)NCC(O)c2ccccc2)cs1 (centres undefined),4.847,0.2585,-5.412,12.73,-4.309
COCCC1(CNC(=O)Nc2ccc(-n3nccn3)cc2)CCC1,-1.263,-22.33,-0.5653,14.16,1.004
CNS(=O)(=O)c1cc(C(=O)NC2COc3ccccc32)cc(C)c1C (centres undefined),0.9223,-188.8,-11.96,8.219,0
CCC(CNC(=O)c1c(C)nn(C)c1OC)Oc1ccccc1 (centres undefined),-1.24,-38.63,-4.663,-2.667,-2.805
COc1cc(CNc2nc(N3CCOCC3)ns2)cc(OC)c1OC,4.28,-,3.96,11.71,-3.039
Fc1ccc(-c2noc([C@@H]3Cc4nc[nH]c4CN3)n2)cc1,13.32,-7.684,-14.01,0,-1.883
CCc1nnc(Nc2cccc(C3CCN(CCO)CC3)n2)s1,9.167,-23.35,-4.31,22.22,-1.589
CN1CCN(c2ccc(NC(=O)c3ccoc3)c(C(F)(F)F)c2)CC1,7.323,20.69,1.156,9.859,-1.966
CN(CC1(CO)CCC1)C(=O)C1CCC(=O)N(Cc2ccc(Cl)cc2)C1 (centres undefined),9.504,-29.58,1.663,12,-2.564
Cc1nn(C)cc1S(=O)(=O)N[C@@H]1CCC[C@@H](N2CCCC2)[C@@H]1O,20.32 and 20.1,-83.08,-8.847,4.027,-6.914
CCCc1cc(C(=O)N2CCCN(c3cccnn3)CC2)[nH]n1,-4.327,-12.18,-0.1139,14.58,-1.37
COCCN(CCOC)C(=O)c1sc(C)nc1C,-5.992,-5.912,-0.8099,8.219,0
CN(Cc1cccc(OC(F)(F)F)c1)C(=O)Cc1ccon1,3.175,-7.876,-15.29,-0.8929,-8.259
Cc1ccc(-c2nc(CN3CCOCS3(=O)=O)c(C)o2)cc1,5.447,-15.38,-8.589,1.754,-4.351
CC(CCSc1ccccc1)N1CCN(C(=O)c2cccs2)CC1 (centres undefined),-,0.75,23.4,5.714,-3.199
O=C(c1cccnc1)N1CCn2nnc(COc3ccccn3)c2C1,3.854,5.792,18.57,13.76,-4.202
COc1ccccc1OCCC(=O)NC1CCc2nc(C)cn2C1 (centres undefined),-2.479,0.6845,-0.6073,2.679,-2.534
CCC(=O)N1CCN(C(=O)NC2CCc3ccccc3C2)CC1 (centres undefined),1.613,-3.249,-7.912,13.16,-6.965
O=C(CCc1cc2n(n1)CCN(CCCn1cccc1)C2)N1CCCC1,2.03,-6.368,-14.14,20,4.325
CCc1nc2c(c(NC3CCC3)n1)CCN(C(=O)CO)CC2,0.8373,5.03,-7.524,1.639,-2.318
CCN(C)c1ncnc2c1CCN(S(=O)(=O)c1ccccc1)CC2,6.312,-4.995,4.111,19.8,-
COCCN1C[C@H]2CN(C(=O)c3ccc4c(c3)OCO4)CCN2C1=O,1.129,8.889,-2.775,-2.778,-2.485
Cc1nc(C2CCCN(C(=O)C(C)(C)n3cc(Cl)cn3)C2)no1 (centres undefined),3.655,-8.547,0.1018,10.81,-2.242
Cn1nc2c(cc1=O)CN(Cc1nc(-c3cccnc3)no1)CC2,4.178,-5.727,-34.57,10.34,-9.595
CN(C)S(=O)(=O)Nc1ccc(Oc2ccc3c(c2)OCO3)cc1,0,20.79,20.5,7.692,-2.136
COc1cccc2c1OCCCN(Cc1ncccc1C(=O)O)C2,-1.613,16.52,2.265,6.579,-1.554
O=C(O)CCc1cc2n(n1)CCN(Cc1cnc(N3CCCC3)nc1)C2,1.086,-9.806,-6.367,18.4,-1.812
O=C(NCCCN1CCOCC1)c1cc(-c2ccccc2)[nH]n1,11.79,-2.356,13.19,20.21,3.475
c1nc(N2CCCC(Cn3cncn3)C2)c2ccsc2n1 (centres undefined),-0.1248,12.01,8.638,3.306,-2.815
Cn1cc(CN2CC3(CCN(Cc4ccsc4)C3)C2)cn1,-13.68,-2.88,6.059,22.86,9.113
CC1CN(C(=O)CN(Cc2ccccc2)C2CC2)CCO1 (centres undefined),4.7,-6.355,-64.63,20.35,-3.511
O=C(c1cnccn1)N1CCC2(CCN(Cc3ccsc3)C2)CC1,10.23,-,-9.667,6.944,0.9752
Cc1ccc(NC2CCN(C(=O)c3cccc4[nH]ncc34)CC2)nn1,34.77 and 11.86,-,-14.33,10.71,-14.54
Brc1cnc(NCCCOC2CCOCC2)nc1,6.405,4.114,-9.387,8.219,-8.062

Repeated from the top, 3 entries:

compound	CoaBC	Pks13 thioesterase	ClpP1P2	LiHisRS	MtTrpRS
COC(=O)[C@@H]1C[C@H](NC(=O)c2cc(=O)[nH]c3ccc(C)cc23)CN1C	3.951	-9.831	-85.07	20.98	-1.253
O=C(c1ccc(F)cc1)N1C[C@@H]2CN(c3ncccn3)C[C@@H]2C1	4.713	-16.84	2.028	20	-3.843
CC(NC(=O)C1CC1)c1cc(O)nc(-c2cccnc2)n1 (centres undefined)	3.946	-40.55	1.536	9.859	7.256

From ChEMBL document CHEMBL3988442, “University of Dundee, Small-Polar-MMV Screening Library” (2021).